In the supplement of paper PMC10849652:
The list shows a part of the results.

By UniProt entry, the sequences of proteins in these tests, tags left out. Where a name states a change or a piece, a line headed by the entry shows the natural chain unless it says otherwise.
UniProt Q9UBS4: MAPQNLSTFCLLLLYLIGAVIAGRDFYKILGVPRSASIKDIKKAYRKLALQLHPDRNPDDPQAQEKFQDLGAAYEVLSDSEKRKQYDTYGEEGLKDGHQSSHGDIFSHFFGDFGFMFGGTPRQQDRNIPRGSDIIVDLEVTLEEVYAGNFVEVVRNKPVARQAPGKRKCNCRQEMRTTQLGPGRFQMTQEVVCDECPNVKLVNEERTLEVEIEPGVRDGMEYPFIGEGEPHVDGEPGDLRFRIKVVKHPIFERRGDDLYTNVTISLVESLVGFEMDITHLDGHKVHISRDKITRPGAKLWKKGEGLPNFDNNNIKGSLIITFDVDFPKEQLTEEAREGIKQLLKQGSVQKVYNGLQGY
UniProt Q86TI2: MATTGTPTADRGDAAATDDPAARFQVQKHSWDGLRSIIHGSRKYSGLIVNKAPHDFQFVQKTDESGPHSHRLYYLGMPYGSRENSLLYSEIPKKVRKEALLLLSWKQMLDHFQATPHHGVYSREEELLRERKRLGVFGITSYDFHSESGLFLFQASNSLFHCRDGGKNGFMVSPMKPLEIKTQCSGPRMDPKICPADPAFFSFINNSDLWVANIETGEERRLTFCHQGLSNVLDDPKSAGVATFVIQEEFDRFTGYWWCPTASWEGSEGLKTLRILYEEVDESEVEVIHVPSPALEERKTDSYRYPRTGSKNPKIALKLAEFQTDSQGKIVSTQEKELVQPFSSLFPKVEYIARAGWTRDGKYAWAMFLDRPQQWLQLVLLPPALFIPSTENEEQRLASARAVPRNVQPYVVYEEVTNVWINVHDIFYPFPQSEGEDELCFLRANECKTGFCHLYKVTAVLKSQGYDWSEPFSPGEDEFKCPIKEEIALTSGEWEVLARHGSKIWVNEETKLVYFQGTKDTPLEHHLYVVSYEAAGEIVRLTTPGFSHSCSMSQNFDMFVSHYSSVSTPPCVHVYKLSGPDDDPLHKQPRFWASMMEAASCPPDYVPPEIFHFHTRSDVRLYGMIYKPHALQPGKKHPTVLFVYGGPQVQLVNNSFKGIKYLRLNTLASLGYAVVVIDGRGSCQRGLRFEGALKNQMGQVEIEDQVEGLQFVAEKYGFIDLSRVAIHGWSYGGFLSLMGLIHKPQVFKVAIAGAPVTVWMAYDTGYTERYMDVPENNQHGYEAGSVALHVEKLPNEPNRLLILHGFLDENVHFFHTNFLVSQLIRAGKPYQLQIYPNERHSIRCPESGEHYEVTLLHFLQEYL
UniProt Q16610: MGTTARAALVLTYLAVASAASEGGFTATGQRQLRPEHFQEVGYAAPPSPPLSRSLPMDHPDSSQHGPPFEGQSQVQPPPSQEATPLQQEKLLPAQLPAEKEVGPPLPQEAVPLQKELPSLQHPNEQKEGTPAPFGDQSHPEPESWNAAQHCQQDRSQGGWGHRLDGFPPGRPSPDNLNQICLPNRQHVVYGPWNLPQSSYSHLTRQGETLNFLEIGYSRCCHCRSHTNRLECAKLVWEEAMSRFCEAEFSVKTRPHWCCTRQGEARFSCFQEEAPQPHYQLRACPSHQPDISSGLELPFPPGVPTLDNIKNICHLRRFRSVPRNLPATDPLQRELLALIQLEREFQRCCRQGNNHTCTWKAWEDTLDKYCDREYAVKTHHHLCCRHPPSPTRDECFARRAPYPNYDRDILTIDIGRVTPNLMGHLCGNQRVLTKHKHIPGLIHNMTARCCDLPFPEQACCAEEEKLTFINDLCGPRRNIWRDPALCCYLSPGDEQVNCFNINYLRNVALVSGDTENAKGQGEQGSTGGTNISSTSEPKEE
UniProt Q13217: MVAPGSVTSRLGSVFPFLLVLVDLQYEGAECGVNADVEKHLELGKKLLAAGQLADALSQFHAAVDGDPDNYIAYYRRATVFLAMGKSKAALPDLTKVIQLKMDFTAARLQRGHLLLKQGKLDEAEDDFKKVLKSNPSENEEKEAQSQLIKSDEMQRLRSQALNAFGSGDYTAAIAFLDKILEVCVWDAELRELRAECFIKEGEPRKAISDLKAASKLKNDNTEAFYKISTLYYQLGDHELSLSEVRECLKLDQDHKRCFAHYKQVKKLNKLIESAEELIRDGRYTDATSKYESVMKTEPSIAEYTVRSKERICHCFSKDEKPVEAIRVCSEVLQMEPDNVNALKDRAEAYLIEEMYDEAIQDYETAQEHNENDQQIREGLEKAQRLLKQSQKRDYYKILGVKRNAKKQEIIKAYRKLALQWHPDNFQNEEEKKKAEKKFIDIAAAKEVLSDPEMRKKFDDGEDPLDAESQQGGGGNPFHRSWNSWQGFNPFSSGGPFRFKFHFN
UniProt P33316: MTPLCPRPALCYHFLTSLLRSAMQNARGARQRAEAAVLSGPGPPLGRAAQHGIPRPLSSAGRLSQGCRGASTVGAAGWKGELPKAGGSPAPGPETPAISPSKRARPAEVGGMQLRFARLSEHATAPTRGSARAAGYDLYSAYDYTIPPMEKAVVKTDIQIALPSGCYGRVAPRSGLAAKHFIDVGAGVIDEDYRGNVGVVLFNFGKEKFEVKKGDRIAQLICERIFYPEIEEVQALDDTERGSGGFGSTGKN
UniProt P51452: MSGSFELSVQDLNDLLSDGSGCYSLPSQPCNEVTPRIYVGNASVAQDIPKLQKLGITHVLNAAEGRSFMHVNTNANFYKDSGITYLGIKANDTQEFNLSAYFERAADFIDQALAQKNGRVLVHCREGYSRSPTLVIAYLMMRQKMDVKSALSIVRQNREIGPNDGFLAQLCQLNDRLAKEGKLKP
UniProt Q8WWZ3: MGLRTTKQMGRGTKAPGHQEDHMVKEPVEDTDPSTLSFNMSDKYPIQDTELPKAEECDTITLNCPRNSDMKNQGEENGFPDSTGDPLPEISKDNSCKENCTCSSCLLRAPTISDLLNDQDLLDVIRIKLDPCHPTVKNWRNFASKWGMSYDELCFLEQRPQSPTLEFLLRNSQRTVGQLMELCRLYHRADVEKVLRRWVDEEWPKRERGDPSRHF
UniProt Q99704: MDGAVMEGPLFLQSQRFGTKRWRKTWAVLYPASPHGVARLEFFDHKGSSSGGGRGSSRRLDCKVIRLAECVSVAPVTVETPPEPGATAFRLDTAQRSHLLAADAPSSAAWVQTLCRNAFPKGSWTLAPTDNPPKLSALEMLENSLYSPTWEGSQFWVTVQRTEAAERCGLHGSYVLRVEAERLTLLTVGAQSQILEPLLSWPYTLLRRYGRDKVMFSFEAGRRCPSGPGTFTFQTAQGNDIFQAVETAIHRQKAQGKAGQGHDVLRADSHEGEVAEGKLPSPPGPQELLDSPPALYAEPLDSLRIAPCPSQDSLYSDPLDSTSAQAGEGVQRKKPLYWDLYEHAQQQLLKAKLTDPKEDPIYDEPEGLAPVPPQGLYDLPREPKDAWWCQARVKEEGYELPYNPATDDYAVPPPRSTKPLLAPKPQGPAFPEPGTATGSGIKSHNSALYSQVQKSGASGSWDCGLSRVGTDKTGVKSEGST
UniProt Q9Y2G8: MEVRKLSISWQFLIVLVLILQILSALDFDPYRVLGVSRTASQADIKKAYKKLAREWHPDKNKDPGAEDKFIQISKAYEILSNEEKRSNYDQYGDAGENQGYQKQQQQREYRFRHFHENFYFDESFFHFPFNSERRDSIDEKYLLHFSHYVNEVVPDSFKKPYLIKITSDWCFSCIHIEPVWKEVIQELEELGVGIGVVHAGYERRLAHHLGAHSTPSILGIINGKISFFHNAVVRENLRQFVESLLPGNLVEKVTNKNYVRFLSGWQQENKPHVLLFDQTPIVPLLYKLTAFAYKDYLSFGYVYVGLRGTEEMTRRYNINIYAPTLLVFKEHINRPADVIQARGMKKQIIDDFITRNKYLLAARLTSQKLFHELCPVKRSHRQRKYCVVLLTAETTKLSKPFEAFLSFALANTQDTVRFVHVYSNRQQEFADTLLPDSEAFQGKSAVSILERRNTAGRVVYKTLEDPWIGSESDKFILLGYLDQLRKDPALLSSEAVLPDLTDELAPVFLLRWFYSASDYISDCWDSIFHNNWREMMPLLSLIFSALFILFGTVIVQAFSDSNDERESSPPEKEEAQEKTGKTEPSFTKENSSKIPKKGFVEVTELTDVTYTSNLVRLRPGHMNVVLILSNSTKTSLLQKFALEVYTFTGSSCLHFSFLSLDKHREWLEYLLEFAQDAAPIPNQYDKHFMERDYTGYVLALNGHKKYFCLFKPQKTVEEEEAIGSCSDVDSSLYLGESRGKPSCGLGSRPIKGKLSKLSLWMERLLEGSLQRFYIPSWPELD
UniProt Q7RTS9: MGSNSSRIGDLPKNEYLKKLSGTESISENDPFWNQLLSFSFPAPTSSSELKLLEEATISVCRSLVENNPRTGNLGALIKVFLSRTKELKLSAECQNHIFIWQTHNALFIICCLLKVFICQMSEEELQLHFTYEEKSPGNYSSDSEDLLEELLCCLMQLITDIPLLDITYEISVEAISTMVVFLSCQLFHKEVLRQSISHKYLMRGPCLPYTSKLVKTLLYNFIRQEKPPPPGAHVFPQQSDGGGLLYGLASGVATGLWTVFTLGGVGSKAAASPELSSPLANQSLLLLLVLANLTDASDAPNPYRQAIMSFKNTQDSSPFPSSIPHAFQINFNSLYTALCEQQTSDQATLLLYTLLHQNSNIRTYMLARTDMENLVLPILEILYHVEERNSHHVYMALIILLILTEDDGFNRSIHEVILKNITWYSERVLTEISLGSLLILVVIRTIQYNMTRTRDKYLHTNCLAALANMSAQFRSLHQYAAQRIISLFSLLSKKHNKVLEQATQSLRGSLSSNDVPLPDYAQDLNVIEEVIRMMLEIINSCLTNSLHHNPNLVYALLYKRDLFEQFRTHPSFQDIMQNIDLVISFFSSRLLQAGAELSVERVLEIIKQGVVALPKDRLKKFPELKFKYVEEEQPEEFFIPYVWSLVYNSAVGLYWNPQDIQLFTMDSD
UniProt Q9BV94: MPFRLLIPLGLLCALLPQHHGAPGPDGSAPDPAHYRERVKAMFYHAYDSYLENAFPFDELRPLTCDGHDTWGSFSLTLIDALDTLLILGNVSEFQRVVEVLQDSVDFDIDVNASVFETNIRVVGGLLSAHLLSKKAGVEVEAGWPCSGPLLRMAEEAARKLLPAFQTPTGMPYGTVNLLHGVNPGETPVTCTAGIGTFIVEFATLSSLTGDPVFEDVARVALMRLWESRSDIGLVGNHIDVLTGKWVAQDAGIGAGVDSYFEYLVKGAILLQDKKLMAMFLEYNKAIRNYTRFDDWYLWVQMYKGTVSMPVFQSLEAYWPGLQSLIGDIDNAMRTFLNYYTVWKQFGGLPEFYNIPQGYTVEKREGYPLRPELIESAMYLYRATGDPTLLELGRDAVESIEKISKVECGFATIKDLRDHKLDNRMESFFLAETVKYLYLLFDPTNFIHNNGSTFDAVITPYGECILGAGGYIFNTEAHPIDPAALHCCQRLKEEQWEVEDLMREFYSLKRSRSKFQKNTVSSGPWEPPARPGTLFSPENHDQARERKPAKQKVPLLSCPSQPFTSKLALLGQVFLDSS
UniProt Q5SXM8: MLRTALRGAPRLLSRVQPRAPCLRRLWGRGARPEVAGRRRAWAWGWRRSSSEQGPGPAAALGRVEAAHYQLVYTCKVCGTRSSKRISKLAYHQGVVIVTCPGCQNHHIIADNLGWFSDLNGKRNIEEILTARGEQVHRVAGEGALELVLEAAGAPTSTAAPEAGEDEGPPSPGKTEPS
UniProt Q9NVM6: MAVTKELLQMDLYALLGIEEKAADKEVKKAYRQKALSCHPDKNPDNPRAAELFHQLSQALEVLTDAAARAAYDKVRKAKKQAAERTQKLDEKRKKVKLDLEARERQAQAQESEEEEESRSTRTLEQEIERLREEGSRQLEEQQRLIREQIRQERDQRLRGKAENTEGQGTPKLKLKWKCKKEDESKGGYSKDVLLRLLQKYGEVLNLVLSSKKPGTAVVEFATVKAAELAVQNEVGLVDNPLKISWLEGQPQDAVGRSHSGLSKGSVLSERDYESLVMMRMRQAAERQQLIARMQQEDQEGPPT
UniProt Q6P3W2: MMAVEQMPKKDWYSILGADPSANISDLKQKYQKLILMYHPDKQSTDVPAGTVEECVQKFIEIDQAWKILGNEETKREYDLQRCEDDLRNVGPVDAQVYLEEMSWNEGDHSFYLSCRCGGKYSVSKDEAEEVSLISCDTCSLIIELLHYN
UniProt O00716: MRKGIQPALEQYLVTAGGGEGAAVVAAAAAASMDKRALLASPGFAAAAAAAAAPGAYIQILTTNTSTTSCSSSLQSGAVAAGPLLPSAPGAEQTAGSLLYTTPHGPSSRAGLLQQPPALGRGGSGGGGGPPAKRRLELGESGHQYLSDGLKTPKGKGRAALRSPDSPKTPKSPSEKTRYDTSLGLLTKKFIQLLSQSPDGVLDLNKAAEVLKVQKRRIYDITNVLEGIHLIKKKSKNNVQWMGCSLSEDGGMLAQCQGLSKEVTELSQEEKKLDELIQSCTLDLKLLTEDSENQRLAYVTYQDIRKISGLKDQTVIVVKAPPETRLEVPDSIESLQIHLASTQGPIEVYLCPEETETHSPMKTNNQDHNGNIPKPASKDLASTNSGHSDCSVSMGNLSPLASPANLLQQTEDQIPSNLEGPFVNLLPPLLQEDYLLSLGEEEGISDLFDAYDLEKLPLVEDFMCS

What was measured:
Experiment in all cases: log2 fold change, soluble protein after heating vs DMSO (PISA); higher = thermal stabilisation; K562 cells, 10 uM, 30 min; active = over 0.2 and 3.5 SD of the protein, either way, in both replicates (recomputed)
[1] = compound: NC(=O)Nc1cc(-c2cccc(F)c2)sc1C(=O)N[C@H]1CCCNC1
Method in brief: (§1)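 Values are thermal stability changes relative to control samples and are taken from duplicates. They are stated as log2 fold changes. Before quantification by TMTpro 16plex LC-MS/MS with equalised channel sums, K562 cells at 2×10^6 cells/mL were treated with 10 μM compound for 30 min, heated in aliquots for 3 min across 48°C-58°C, pooled, extracted in PBS with 0.5% NP-40 at 4°C, and centrifuged at 21,000xg for 90 min to give the soluble supernatant.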

[2] = compound: NC(=O)c1cnc(N[C@@H]2CCCC[C@@H]2N)nc1Nc1cccc(-n2nccn2)c1
Method in brief: as §1

[3] = compound: NC1(c2ccc(-c3nc4ccn5c(=O)[nH]nc5c4cc3-c3ccccc3)cc2)CCC1
Method in brief: as §1

[4] = compound: NCC(=O)Nc1ccc(-n2nc(C(F)(F)F)cc2-c2ccc3c(ccc4ccccc43)c2)cc1
Method in brief: as §1

entinostat = compound: Nc1ccccc1NC(=O)c1ccc(CNC(=O)OCc2cccnc2)cc1 [entinostat]
Method in brief: as §1

vorinostat = compound: O=C(CCCCCCC(=O)Nc1ccccc1)NO [vorinostat]
Method in brief: as §1

citarinostat = compound: O=C(CCCCCCNC(=O)c1cnc(N(c2ccccc2)c2ccccc2Cl)nc1)NO [citarinostat]
Method in brief: as §1

silmitasertib = compound: O=C(O)c1ccc2c(c1)nc(Nc1cccc(Cl)c1)c1ccncc12 [silmitasertib]
Method in brief: as §1

[5] = compound: O=C1NC(=O)C(c2cnc3ccccn23)=C1c1cn2c3c(cc(F)cc13)CN(C(=O)N1CCCCC1)CC2
Method in brief: as §1

[6] = compound: c1cc(OCCN2CCCCC2)cc(-c2n[nH]c3ccc(-c4nnc[nH]4)cc23)c1
Method in brief: as §1

entospletinib = compound: c1cn2cc(-c3ccc4cn[nH]c4c3)nc(Nc3ccc(N4CCOCC4)cc3)c2n1 [entospletinib]
Method in brief: as §1

Measured: log2 fold change

DOCK7 (UniProt Q96N67)
inactive: [1] -0.018 | [2] 0.019 | [3] -0.109 | [4] -0.032 | entinostat 0.044 | vorinostat 0.017 | citarinostat 0.028 | silmitasertib -0.06 | [5] -0.04 | [6] -0.069 | entospletinib -0.066

DNAJB11 (UniProt Q9UBS4)
inactive: [1] -0.018 | [2] 0.009 | [3] -0.007 | [4] -0.021 | entinostat -0.021 | vorinostat -0.048 | citarinostat 0.008 | silmitasertib -0.01 | [5] 0.015 | [6] 0.015 | entospletinib 0.029

EAF1 (UniProt Q96JC9)
inactive: [1] -0.167 | [2] -0.037 | [3] 0.037 | [4] 0.024 | entinostat 0.03 | vorinostat -0.186 | citarinostat -0.045 | silmitasertib -0.003 | [5] -0.024 | [6] 0.051 | entospletinib -0.074

DPP9 isoform 2 (UniProt Q86TI2)
inactive: [1] 0.008 | [2] -0.039 | [3] -0.13 | [4] -0.044 | entinostat -0.006 | vorinostat 0.108 | citarinostat -0.008 | silmitasertib -0.042 | [5] -0.037 | [6] -0.049 | entospletinib -0.014

ECM1 isoform 4 (UniProt Q16610)
inactive: [1] -0.005 | [2] -0.01 | [3] 0.041 | [4] -0.009 | entinostat 0.039 | vorinostat -0.054 | citarinostat -0.041 | silmitasertib -0.009 | [5] -0.007 | [6] 0.129 | entospletinib -0.059

DNMT1 isoform 2 (UniProt P26358)
inactive: [1] -0.004 | [2] -0.044 | [3] -0.004 | [4] -0.017 | entinostat -0.006 | vorinostat 0.043 | citarinostat 0.015 | silmitasertib -0.008 | [5] -0.031 | [6] -0.014 | entospletinib -0.006

DYNC1H1 (UniProt Q14204)
inactive: [1] -0.017 | [2] -0.03 | [3] -0.121 | [4] -0.005 | entinostat 0.003 | vorinostat 0.029 | citarinostat 0.021 | silmitasertib -0.018 | [5] -0.034 | [6] -0.028 | entospletinib -0.003

Two successive records already listed, for reference:
EAF1 (UniProt Q96JC9)
inactive: [1] -0.167 | [2] -0.037 | [3] 0.037 | [4] 0.024 | entinostat 0.03 | vorinostat -0.186 | citarinostat -0.045 | silmitasertib -0.003 | [5] -0.024 | [6] 0.051 | entospletinib -0.074

DPP9 isoform 2 (UniProt Q86TI2)
inactive: [1] 0.008 | [2] -0.039 | [3] -0.13 | [4] -0.044 | entinostat -0.006 | vorinostat 0.108 | citarinostat -0.008 | silmitasertib -0.042 | [5] -0.037 | [6] -0.049 | entospletinib -0.014

Additional entries

DRAP1 isoform 2 (UniProt Q14919)
inactive: [1] -0.024 | [2] 0.052 | [3] -0.05 | [4] 0.025 | entinostat -0.005 | vorinostat -0.097 | citarinostat 0 | silmitasertib -0.016 | [5] -0.039 | [6] 0.022 | entospletinib 0.014

DPH7 (UniProt Q9BTV6)
inactive: [1] 0.033 | [2] -0.033 | [3] 0.118 | [4] 0.019 | entinostat -0.032 | vorinostat -0.063 | citarinostat -0.051 | silmitasertib -0.031 | [5] 0.04 | [6] 0.028 | entospletinib -0.011

DNAJC3 (UniProt Q13217)
inactive: [1] -0.061 | [2] 0.071 | [3] -0.043 | [4] 0.015 | entinostat -0.024 | vorinostat -0.006 | citarinostat 0 | silmitasertib 0.045 | [5] -0.056 | [6] -0.039 | entospletinib -0.015

DUT (UniProt P33316)
inactive: [1] 0.001 | [2] -0.028 | [3] -0.057 | [4] -0.094 | entinostat -0.055 | vorinostat -0.006 | citarinostat 0.035 | silmitasertib -0.03 | [5] -0.041 | [6] -0.007 | entospletinib 0.027

DUSP3 (UniProt P51452)
inactive: [1] -0.021 | [2] -0.02 | [3] 0.013 | [4] -0.015 | entinostat 0.048 | vorinostat 0.05 | citarinostat 0.021 | silmitasertib 0.055 | [5] -0.026 | [6] 0.006 | entospletinib 0.055

EDARADD (UniProt Q8WWZ3)
inactive: [1] -0.081 | [2] 0.004 | [3] 0.018 | [4] 0.136 | entinostat -0.008 | vorinostat -0.017 | citarinostat 0.005 | silmitasertib 0.047 | [5] -0.073 | [6] 0.011 | entospletinib -0.09

DUSP12 (UniProt Q9UNI6)
inactive: [1] -0.017 | [2] -0.099 | [3] -0.135 | [4] -0.075 | entinostat -0.006 | vorinostat -0.016 | citarinostat 0.036 | silmitasertib 0.002 | [5] -0.055 | [6] -0.031 | entospletinib 0.071

DSG2 (UniProt Q14126)
inactive: [1] -0.065 | [2] -0.015 | [3] -0.024 | [4] 0.013 | entinostat -0.061 | vorinostat -0.004 | citarinostat 0.009 | silmitasertib -0.006 | [5] -0.001 | [6] -0.052 | entospletinib 0.018

DNAJB4 (UniProt Q9UDY4)
inactive: [1] 0.012 | [2] -0.114 | [3] 0.015 | [4] -0.032 | entinostat 0.008 | vorinostat -0.035 | citarinostat 0.046 | silmitasertib -0.044 | [5] -0.038 | [6] -0.049 | entospletinib -0.036

DOK1 (UniProt Q99704)
inactive: [1] -0.01 | [2] 0.059 | [3] -0.13 | [4] -0.058 | entinostat 0.09 | citarinostat 0.216 | silmitasertib -0.1 | [5] -0.202 | [6] 0.002 | entospletinib -0.02

ECHS1 (UniProt P30084)
inactive: [1] -0.041 | [2] 0.018 | [3] -0.004 | [4] 0.018 | entinostat -0.017 | vorinostat 0.016 | citarinostat 0.123 | silmitasertib -0.061 | [5] -0.047 | [6] 0.043 | entospletinib -0.045

DPY19L1, A0A1B0GW05
inactive: [1] 0.032 | [2] 0.027 | [3] -0.082 | [4] 0.064 | entinostat -0.018 | citarinostat 0.042 | silmitasertib 0.089 | [5] -0.035 | [6] 0.005 | entospletinib -0.037

DNAJC16 (UniProt Q9Y2G8)
inactive: [1] 0.116 | [2] 0.447 | [4] -0.079 | entinostat -0.004 | vorinostat 0.006 | citarinostat -0.241 | [5] 0.06 | [6] -0.136 | entospletinib -0.062

DYNC1I2 isoform 2 (UniProt Q13409)
inactive: [1] 0.181 | [2] 0 | [3] -0.037 | entinostat -0.206 | citarinostat 0.094 | silmitasertib -0.154 | [5] -0.127 | [6] -0.035

DYNC2LI1 isoform 2 (UniProt Q8TCX1)
inactive: [1] -0.015 | [3] 0.059 | [4] -0.229 | entinostat 0.033 | silmitasertib -0.038 | [5] 0.176

DYM (UniProt Q7RTS9)
inactive: [1] -0.044 | [3] -0.132 | [4] 0.023 | entinostat -0.078 | vorinostat 0.029 | citarinostat -0.005 | silmitasertib 0.002 | [5] -0.13 | [6] 0.014 | entospletinib 0.2

DNPEP (UniProt B9ZVU2)
inactive: [1] 0.093 | [2] 0.003 | [3] 0.03 | [4] 0.154 | entinostat -0.033 | vorinostat 0.011 | citarinostat 0.012 | silmitasertib -0.048 | [6] 0.022 | entospletinib 0.008

E4F1 (UniProt Q66K89)
inactive: [1] -0.279 | [2] 0.071 | [3] -0.061 | [4] 0.168 | entinostat -0.203 | vorinostat 0.051 | silmitasertib 0.053 | [5] 0.269

DYNLT1 (UniProt P63172)
inactive: [1] -0.093 | [2] 0.102 | [3] 0.011 | [4] 0.026 | entinostat 0 | vorinostat 0.142 | citarinostat 0.031 | silmitasertib -0.07 | [6] 0.008 | entospletinib -0.021

EAPP (UniProt Q56P03)
inactive: [1] 0.137 | [2] 0.047 | [3] 0.141 | [4] 0.038 | entinostat -0.046 | vorinostat 0.029 | citarinostat -0.143 | silmitasertib 0.089 | [6] 0.111 | entospletinib -0.03

EDEM2 (UniProt Q9BV94)
inactive: [1] 0.004 | [2] -0.108 | [3] -0.054 | [4] -0.039 | entinostat -0.003 | vorinostat 0.001 | silmitasertib 0.027 | [5] -0.029

DNLZ (UniProt Q5SXM8)
inactive: [1] 0.031 | [2] -0.016 | [3] 0.068 | [4] 0.027 | entinostat -0.024 | citarinostat 0.037 | silmitasertib 0.052 | [5] -0.194 | [6] 0.128 | entospletinib -0.029

DNPEP (UniProt C9JBE1)
inactive: [1] -0.21 | [3] -0.011 | [4] -0.393 | entinostat 0.008 | vorinostat -0.191 | silmitasertib -0.016 | [5] -0.318

DNAJC17 (UniProt Q9NVM6)
inactive: [1] -0.022 | [2] -0.006 | [3] -0.024 | [4] -0.002 | entinostat -0.049 | vorinostat -0.122 | citarinostat 0.026 | silmitasertib 0.016 | [5] 0.03 | [6] 0.083 | entospletinib -0.037

DOP1B (UniProt Q9Y3R5)
inactive: [1] -0.055 | [3] -0.201 | [4] -0.162 | entinostat -0.013 | vorinostat 0.144 | citarinostat -0.042 | silmitasertib 0.082 | [5] -0.049 | [6] 0.076 | entospletinib -0.233

DNAJC24 (UniProt Q6P3W2)
inactive: [1] 0.023 | [3] 0.011 | [4] -0.129 | entinostat 0.055 | citarinostat 0.102 | silmitasertib 0.052 | [5] -0.059 | [6] -0.169

ECHDC3 (UniProt Q96DC8)
inactive: [1] -0.488 | [3] -0.111 | [4] 0.162 | entinostat 0.139 | vorinostat -0.143 | citarinostat 0.318 | silmitasertib 0.098 | [5] 0.185 | [6] -0.067 | entospletinib -0.081

DPM3 isoform 2 (UniProt Q9P2X0)
inactive: [1] 0.025 | [2] -0.132 | [3] -0.067 | [4] 0.065 | entinostat 0.016 | citarinostat -0.078 | silmitasertib -0.004 | [5] -0.183 | [6] -0.024 | entospletinib 0.013

DOLK (UniProt Q9UPQ8)
inactive: [1] -0.036 | [2] -0.288 | entinostat 0.075 | [5] 0.014

E2F3 (UniProt O00716)
inactive: [1] 0.102 | [3] -0.034 | [4] 0.038 | entinostat 0.026 | vorinostat 0.094 | citarinostat 0.001 | silmitasertib 0.014 | [5] -0.085 | [6] -0.089 | entospletinib 0.018

DNM1L isoform 2 (UniProt O00429)
inactive: [1] -0.023 | [2] 0.081 | [3] -0.108 | [4] 0.108 | entinostat -0.074 | vorinostat 0.143 | citarinostat 0.009 | silmitasertib 0.051 | [6] 0.036 | entospletinib -0.029
